Results: paper PMC9700792

Chains of the proteins cited; added tags and fusions are not shown. Residues count along the entry.
UniProt Q8BNW9: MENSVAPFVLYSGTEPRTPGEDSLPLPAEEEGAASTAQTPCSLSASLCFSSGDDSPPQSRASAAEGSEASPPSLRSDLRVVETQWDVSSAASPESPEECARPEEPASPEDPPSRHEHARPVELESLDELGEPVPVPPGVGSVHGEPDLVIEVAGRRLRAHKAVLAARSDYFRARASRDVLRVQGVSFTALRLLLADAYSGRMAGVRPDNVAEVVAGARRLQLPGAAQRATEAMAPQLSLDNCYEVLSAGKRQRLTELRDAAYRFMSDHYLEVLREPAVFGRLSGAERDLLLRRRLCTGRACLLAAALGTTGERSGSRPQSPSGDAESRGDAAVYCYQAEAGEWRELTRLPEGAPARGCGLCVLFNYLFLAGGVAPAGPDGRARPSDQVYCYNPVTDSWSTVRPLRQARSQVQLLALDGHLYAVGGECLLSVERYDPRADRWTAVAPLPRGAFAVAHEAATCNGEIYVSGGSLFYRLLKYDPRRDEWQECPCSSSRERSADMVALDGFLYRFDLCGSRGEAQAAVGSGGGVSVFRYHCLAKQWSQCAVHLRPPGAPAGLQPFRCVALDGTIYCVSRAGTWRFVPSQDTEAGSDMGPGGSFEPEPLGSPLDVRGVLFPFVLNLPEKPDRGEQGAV
UniProt P63038, residues 27-573: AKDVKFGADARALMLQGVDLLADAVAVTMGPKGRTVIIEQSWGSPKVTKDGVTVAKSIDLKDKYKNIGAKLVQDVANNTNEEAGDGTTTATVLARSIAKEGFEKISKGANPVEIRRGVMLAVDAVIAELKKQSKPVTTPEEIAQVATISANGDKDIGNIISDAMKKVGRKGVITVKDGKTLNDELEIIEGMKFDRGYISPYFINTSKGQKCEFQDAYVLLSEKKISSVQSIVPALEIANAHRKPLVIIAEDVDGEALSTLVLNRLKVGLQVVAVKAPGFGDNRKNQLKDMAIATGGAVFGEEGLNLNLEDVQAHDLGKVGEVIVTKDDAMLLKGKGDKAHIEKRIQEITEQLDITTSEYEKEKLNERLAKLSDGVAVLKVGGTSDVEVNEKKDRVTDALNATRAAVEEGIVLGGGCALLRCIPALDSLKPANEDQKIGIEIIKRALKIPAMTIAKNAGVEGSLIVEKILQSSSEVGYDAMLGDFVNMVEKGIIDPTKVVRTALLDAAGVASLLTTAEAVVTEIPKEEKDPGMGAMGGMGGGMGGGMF

Biological target: FLAG-His-tagged KBTBD11 (UniProt Q8BNW9)
Experiment: affinity purification with mass spectrometry; tandem affinity purification (anti-FLAG M2 agarose, 3xFLAG peptide elution, then Ni-NTA agarose) of KBTBD11-FLAG-His from adenovirus-infected differentiated 3T3-L1 adipocytes (day 4); SDS-PAGE, silver staining, bands identified by MALDI-TOF MS

For HSP60 (from UniProt P63038 27-573), the binding was “binds”.

Results are given in words; binding and its absence hold for the method and conditions named. In cells and extracts the contact can be indirect. A yes stands for co-enrichment or nearness to the bait. Other partners may have been found.
